The target in the test is transforming growth factor-beta 1 (TGF-β1) (UniProt P01137). The experiment in a line: SPR; Biacore 2000, 25 °C; TGF-β1 coupled to a CM5 chip (1500 U); COMP and TSP-4 as analytes, 1:2 dilution series from 160 to 0 (legend: 5 to 160 nM), running buffer of Biacore AB, 30 µl/min; regeneration with 2 M NaCl; multicycle kinetics fitted to a 1:1 (Langmuir) model; both purified.

By UniProt entry, the sequences of proteins in these tests, tags left out. Residues count along the entry.
UniProt P01137, residues 279-390: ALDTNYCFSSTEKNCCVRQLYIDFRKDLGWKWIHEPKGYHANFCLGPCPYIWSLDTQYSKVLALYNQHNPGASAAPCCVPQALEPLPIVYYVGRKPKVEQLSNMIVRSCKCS
UniProt P35444, residues 20-755: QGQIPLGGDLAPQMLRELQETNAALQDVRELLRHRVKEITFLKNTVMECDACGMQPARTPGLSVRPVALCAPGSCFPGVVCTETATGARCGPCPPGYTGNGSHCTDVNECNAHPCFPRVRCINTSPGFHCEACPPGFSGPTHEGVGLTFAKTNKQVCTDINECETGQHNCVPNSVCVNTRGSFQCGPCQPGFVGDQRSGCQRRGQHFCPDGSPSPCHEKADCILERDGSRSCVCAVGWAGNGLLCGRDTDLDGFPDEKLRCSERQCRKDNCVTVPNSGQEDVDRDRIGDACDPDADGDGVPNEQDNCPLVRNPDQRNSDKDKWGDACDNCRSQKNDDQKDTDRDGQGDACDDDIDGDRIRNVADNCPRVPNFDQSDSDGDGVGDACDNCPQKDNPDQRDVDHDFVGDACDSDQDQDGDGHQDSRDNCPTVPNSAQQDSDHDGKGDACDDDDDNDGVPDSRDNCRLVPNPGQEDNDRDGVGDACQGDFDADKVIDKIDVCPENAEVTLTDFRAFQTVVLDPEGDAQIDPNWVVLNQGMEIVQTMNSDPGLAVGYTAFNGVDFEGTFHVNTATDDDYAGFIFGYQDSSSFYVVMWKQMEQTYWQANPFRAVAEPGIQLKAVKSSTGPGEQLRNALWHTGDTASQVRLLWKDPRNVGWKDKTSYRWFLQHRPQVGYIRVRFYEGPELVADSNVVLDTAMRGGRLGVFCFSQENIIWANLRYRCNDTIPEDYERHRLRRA
UniProt P49744, residues 43-980: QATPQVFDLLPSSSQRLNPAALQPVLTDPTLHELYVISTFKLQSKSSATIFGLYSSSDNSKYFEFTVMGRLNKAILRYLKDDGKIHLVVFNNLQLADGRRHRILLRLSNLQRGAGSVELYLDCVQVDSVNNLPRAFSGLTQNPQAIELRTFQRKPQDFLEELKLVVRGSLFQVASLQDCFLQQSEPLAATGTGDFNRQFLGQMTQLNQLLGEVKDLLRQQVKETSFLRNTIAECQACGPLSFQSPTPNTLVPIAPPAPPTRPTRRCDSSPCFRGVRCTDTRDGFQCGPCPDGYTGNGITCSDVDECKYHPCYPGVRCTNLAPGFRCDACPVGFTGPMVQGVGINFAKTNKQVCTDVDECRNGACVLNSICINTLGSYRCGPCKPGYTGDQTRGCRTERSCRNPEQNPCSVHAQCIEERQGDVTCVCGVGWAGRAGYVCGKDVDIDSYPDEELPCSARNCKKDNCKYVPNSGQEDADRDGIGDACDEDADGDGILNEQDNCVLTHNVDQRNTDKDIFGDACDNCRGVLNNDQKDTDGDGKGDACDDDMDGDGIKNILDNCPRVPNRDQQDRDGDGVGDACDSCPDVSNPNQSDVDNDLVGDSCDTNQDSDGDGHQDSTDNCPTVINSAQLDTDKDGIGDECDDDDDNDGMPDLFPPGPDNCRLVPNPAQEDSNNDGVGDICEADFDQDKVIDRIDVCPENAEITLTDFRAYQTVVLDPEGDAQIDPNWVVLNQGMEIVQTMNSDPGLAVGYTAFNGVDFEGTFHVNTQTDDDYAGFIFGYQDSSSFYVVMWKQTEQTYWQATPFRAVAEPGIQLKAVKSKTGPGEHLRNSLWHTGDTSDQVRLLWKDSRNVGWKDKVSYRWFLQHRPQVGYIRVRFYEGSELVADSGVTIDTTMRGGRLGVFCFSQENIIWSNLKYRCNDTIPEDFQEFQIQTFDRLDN

For two substances, binding results are on record in publication PMC7956748.

Results are given in words; binding and its absence hold for the method and conditions named. Some results given as binding are weak or reduced against the parent protein; the word gives no strength.

In the case of “cartilage oligomeric matrix protein (COMP), recombinant full-length rat (from UniProt P35444 20-755)”, the binding result is “binds”.

With “thrombospondin-4 (TSP-4), recombinant full-length rat (from UniProt P49744 43-980)”, the binding result is recorded as “binds”.
